This is one part of the list.
How the values were obtained:
Test in all cases: log2 fold change, soluble protein after heating vs DMSO (PISA); higher = thermal stabilisation; K562 cells, 10 uM, 30 min; active = over 0.2 and 3.5 SD of the protein, either way, in both replicates (recomputed)
[1] = compound: COC1=CC=C(C=C1)CN2C=CC3=C2C=C(C=C3)C(=O)NO
How it was run: (§1)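 K562 cells at 2×10^6 cells/mL were treated for 30 min with 10 μM compound, and aliquots were heated for 3 min over 48°C-58°C before pooling. Extraction used PBS with 0.5% NP-40 at 4°C, and soluble protein was the supernatant after 21,000xg for 90 min, measured by TMTpro 16plex LC-MS/MS with channel sums equalised. Thermal stability values, relative to control samples and from duplicates, are log2 fold changes.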

By UniProt entry, the sequences of proteins in these tests, tags left out. Where a name states a change or a piece, a line headed by the entry shows the natural chain unless it says otherwise.
UniProt O15379: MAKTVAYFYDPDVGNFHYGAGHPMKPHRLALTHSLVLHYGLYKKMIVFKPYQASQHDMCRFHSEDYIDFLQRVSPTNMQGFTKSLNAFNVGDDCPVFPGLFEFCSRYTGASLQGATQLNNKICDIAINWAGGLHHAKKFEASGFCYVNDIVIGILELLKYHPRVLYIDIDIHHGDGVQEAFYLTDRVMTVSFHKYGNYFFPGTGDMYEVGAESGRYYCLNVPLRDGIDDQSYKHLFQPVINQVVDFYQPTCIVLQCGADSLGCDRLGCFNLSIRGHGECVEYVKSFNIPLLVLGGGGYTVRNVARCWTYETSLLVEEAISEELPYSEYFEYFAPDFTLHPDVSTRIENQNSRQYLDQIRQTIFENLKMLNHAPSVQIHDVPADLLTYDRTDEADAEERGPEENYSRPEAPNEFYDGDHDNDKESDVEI
UniProt Q92664: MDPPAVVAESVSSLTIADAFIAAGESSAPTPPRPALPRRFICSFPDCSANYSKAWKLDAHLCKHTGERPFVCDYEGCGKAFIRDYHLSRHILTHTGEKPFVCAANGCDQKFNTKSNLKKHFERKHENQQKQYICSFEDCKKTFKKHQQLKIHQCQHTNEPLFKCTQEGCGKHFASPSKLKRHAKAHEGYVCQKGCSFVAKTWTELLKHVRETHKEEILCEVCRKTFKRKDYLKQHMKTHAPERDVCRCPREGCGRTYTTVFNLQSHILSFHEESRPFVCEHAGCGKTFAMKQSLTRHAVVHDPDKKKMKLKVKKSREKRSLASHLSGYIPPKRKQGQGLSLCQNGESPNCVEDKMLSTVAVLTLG
UniProt Q15751: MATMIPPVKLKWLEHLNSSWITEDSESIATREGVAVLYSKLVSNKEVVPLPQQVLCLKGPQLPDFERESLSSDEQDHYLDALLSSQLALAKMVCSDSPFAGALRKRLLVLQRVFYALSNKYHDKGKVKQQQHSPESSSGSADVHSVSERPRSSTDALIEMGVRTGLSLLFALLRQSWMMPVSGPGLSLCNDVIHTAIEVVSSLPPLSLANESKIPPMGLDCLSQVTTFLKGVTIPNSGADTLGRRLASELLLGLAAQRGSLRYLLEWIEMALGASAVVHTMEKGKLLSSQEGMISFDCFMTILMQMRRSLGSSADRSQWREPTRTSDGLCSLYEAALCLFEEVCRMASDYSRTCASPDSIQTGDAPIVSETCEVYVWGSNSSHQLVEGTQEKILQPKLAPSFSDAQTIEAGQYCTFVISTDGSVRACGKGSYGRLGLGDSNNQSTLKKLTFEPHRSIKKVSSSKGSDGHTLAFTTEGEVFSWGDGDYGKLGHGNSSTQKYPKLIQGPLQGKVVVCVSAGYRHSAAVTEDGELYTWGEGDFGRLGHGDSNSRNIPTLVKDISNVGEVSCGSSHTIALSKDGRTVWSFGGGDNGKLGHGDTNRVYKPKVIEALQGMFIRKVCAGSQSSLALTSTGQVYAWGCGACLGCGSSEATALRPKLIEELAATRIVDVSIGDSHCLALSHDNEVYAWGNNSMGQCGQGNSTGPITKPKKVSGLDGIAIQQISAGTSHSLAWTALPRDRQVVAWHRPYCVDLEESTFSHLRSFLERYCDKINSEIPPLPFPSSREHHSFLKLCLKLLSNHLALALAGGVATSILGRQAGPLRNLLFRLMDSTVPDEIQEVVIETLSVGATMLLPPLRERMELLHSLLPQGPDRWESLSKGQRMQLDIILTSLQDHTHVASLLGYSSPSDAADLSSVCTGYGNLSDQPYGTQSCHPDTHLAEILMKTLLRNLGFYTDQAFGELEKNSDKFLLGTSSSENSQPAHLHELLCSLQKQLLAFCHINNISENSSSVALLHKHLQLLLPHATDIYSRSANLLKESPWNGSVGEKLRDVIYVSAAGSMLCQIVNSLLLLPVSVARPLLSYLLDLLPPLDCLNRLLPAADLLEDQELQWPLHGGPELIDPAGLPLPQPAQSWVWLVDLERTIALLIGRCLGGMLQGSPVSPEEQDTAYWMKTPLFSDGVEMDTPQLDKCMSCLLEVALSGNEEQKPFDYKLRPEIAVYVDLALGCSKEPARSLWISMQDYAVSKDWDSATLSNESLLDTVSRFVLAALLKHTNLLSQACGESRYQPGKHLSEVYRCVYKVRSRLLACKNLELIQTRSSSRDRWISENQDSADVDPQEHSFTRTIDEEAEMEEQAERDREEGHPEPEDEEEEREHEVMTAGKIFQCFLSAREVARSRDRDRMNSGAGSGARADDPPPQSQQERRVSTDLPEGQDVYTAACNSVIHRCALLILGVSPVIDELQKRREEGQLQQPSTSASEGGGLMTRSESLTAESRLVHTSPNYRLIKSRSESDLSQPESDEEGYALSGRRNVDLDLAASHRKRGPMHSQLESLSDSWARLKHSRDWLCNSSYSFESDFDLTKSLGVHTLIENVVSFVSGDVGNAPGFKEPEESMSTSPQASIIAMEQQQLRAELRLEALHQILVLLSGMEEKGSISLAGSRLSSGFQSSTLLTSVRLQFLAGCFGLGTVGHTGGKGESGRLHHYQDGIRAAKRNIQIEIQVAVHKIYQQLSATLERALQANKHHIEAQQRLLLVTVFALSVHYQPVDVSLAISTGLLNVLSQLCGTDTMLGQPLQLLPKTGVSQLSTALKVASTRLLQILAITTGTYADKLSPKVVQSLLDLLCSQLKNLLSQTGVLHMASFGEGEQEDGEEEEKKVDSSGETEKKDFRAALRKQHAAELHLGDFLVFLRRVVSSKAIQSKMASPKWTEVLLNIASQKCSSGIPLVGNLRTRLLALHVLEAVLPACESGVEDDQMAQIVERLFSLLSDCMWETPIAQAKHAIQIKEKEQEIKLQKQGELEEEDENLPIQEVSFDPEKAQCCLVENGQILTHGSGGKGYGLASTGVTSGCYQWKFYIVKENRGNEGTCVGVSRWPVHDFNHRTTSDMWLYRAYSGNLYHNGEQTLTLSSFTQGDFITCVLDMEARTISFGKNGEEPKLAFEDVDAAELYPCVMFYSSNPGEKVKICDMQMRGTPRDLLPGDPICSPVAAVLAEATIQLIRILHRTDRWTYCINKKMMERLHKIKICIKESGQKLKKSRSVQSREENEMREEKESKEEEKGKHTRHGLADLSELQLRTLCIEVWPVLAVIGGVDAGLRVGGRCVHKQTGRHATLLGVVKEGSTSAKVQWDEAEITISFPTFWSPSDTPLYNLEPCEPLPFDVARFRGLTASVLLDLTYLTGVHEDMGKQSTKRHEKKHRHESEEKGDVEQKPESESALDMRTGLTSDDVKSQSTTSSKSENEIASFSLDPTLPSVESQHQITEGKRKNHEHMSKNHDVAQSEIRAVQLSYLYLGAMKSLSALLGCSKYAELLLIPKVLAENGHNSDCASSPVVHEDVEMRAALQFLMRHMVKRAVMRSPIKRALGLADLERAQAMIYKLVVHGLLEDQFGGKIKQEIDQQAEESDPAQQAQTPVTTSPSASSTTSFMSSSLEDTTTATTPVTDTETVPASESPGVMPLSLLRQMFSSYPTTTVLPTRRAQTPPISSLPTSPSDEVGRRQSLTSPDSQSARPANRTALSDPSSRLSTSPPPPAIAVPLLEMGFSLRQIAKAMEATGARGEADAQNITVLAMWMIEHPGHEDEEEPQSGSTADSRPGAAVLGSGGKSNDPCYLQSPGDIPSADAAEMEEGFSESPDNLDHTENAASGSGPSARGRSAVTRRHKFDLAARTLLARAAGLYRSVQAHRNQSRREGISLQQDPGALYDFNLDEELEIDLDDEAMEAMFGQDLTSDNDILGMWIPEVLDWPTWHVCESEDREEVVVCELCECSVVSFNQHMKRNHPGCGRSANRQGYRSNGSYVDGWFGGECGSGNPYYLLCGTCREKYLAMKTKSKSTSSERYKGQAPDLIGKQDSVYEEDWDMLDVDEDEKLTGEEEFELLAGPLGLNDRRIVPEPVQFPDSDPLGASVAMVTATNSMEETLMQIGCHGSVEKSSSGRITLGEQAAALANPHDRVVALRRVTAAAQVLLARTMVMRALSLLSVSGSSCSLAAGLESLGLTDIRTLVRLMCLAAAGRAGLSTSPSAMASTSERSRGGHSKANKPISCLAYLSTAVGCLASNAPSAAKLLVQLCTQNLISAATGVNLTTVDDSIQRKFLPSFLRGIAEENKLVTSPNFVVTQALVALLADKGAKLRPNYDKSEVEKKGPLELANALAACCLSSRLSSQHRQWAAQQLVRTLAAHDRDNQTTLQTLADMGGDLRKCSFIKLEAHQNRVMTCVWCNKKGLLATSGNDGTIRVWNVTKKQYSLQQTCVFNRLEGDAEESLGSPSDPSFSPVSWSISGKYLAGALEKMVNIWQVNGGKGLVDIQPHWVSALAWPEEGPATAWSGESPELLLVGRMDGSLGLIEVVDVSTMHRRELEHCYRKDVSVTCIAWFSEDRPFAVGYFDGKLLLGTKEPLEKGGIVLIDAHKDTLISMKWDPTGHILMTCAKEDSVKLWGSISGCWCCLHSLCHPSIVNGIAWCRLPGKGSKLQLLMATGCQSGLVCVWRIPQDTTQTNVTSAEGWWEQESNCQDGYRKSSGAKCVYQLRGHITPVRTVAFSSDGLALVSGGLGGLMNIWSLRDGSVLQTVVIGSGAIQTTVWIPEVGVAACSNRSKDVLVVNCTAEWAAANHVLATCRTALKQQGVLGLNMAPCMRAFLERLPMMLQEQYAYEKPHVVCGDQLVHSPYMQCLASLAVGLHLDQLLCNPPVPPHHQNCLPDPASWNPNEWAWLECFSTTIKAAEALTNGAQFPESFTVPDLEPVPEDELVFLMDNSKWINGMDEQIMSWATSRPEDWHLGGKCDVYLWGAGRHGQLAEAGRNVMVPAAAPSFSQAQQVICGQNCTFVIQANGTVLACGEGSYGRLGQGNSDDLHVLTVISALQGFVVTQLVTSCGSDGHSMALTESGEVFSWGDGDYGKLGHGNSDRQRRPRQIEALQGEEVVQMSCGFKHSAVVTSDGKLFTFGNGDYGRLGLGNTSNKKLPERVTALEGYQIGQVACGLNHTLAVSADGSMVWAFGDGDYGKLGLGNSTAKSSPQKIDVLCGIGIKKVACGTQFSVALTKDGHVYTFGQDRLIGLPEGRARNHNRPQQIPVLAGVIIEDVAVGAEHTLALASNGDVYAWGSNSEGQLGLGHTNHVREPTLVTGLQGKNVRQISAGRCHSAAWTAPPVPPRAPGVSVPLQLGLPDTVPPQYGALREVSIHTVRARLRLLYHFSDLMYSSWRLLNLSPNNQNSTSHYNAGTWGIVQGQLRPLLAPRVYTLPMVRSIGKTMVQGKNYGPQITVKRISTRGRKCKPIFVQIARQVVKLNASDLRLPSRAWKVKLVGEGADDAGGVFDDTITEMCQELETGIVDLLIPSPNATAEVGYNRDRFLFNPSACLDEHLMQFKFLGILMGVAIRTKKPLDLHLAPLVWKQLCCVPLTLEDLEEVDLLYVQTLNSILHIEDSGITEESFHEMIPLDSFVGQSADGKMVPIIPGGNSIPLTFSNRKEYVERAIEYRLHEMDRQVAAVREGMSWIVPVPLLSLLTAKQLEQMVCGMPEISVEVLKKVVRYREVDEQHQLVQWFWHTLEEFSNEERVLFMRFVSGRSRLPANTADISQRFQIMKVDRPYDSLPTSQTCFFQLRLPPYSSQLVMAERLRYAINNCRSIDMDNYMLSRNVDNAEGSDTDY
UniProt P12081: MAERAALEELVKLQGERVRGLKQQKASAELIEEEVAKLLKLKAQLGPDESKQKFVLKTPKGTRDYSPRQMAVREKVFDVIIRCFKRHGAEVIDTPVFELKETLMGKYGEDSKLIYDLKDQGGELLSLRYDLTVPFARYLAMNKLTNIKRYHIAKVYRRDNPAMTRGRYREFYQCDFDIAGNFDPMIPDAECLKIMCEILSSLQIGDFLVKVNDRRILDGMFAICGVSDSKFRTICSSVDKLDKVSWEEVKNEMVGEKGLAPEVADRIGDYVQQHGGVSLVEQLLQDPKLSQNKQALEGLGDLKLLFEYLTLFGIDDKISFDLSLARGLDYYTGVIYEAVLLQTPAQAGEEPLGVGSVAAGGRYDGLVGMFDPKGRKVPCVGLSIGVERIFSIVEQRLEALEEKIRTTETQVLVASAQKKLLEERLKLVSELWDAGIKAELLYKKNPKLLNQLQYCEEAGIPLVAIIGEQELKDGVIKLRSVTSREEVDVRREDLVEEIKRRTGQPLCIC
UniProt Q13888: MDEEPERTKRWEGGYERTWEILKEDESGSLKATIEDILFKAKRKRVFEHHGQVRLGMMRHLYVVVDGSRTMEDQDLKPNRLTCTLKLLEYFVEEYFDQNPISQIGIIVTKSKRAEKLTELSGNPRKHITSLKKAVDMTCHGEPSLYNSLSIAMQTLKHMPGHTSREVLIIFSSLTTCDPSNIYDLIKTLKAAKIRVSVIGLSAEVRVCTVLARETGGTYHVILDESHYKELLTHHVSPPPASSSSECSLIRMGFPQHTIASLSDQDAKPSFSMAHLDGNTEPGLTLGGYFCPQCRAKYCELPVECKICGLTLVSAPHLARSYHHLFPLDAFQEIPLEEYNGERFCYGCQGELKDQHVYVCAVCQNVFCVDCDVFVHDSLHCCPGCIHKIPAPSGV

filanesib = compound: CON(C)C(=O)N1N=C(c2cc(F)ccc2F)S[C@@]1(CCCN)c1ccccc1 [filanesib]
How it was run: as §1

zotarolimus = compound: CO[C@H]1C[C@@H]2CC[C@@H](C)[C@@](O)(O2)C(=O)C(=O)N2CCCC[C@H]2C(=O)O[C@H]([C@H](C)C[C@@H]2CC[C@H](n3cnnn3)[C@H](OC)C2)CC(=O)[C@H](C)/C=C(\C)[C@@H](O)[C@@H](OC)C(=O)[C@H](C)C[C@H](C)/C=C/C=C/C=C/1C [zotarolimus]
How it was run: as §1

idasanutlin = compound: COc1cc(C(=O)O)ccc1NC(=O)[C@@H]1N[C@@H](CC(C)(C)C)[C@](C#N)(c2ccc(Cl)cc2F)[C@H]1c1cccc(Cl)c1F [idasanutlin]
How it was run: as §1

alisertib = compound: COc1cc(Nc2ncc3c(n2)-c2ccc(Cl)cc2C(c2c(F)cccc2OC)=NC3)ccc1C(=O)O [alisertib]
How it was run: as §1

[2] = compound: COc1cc2nc(-c3cc(F)ccc3O)nc(N[C@@H]3CNC[C@H]3C(C)(C)O)c2cc1OC
How it was run: as §1

gefitinib = compound: COc1cc2ncnc(Nc3ccc(F)c(Cl)c3)c2cc1OCCCN1CCOCC1 [gefitinib]
How it was run: as §1

[3] = compound: COc1cccc2cc(-c3nc([C@H]4CC[C@H](C(=O)O)CC4)n4ncnc(N)c34)[nH]c12
How it was run: as §1

lapatinib = compound: CS(=O)(=O)CCNCc1ccc(-c2ccc3ncnc(Nc4ccc(OCc5cccc(F)c5)c(Cl)c4)c3c2)o1 [lapatinib]
How it was run: as §1

pictilisib = compound: CS(=O)(=O)N1CCN(Cc2cc3nc(-c4cccc5[nH]ncc45)nc(N4CCOCC4)c3s2)CC1 [pictilisib]
How it was run: as §1

Measured: log2 fold change

HECTD3 (UniProt Q5T447)
inactive: [1] 0.082 | filanesib 0.064 | zotarolimus 0.046 | idasanutlin 0.01 | alisertib 0.039 | [2] 0.035 | gefitinib 0.041 | [3] -0.137 | lapatinib -0.027

HDGFL3 (UniProt Q9Y3E1)
inactive: [1] 0.002 | filanesib -0.032 | zotarolimus -0.046 | idasanutlin -0.039 | alisertib -0.052 | [2] 0.022 | gefitinib 0.016 | [3] 0.026 | lapatinib -0.007 | pictilisib 0.013

GSPT1 isoform 3 (UniProt P15170)
inactive: [1] -0.02 | filanesib -0.069 | zotarolimus 0.004 | idasanutlin -0.085 | alisertib -0.032 | [2] 0.032 | gefitinib -0.012 | [3] 0.019 | lapatinib -0.021 | pictilisib 0.077

HEATR6 (UniProt Q6AI08)
inactive: [1] 0.33 | filanesib -0.053 | zotarolimus -0.064 | idasanutlin -0.131 | alisertib -0.079 | [2] 0.077 | gefitinib 0.044 | [3] -0.007 | lapatinib -0.011

GTPBP10 (UniProt A4D1E9)
inactive: [1] -0.032 | filanesib 0.096 | zotarolimus 0.151 | idasanutlin 0.075 | alisertib -0.029 | [2] 0.031 | gefitinib 0.083 | [3] -0.045 | lapatinib 0.029 | pictilisib -0.021

HDAC4 (UniProt P56524)
inactive: [1] 0.002 | filanesib 0.022 | zotarolimus -0.08 | idasanutlin 0.127 | alisertib -0.004 | [2] -0.051 | gefitinib -0.046 | [3] 0.072 | lapatinib -0.111 | pictilisib -0.05

HDDC2 (UniProt Q7Z4H3)
inactive: [1] -0.098 | filanesib -0.037 | zotarolimus 0.049 | idasanutlin -0.068 | alisertib 0.04 | [2] -0.05 | gefitinib -0.022 | [3] 0.068 | lapatinib 0.037 | pictilisib 0.064

HDGF (UniProt P51858)
inactive: [1] 0.044 | filanesib -0.019 | zotarolimus -0.001 | idasanutlin 0.005 | alisertib -0.025 | [2] -0.031 | gefitinib 0.009 | [3] 0.003 | lapatinib -0.018 | pictilisib 0.012

HBG1 (UniProt P69891)
inactive: [1] 0.066 | filanesib -0.025 | zotarolimus 0.049 | idasanutlin -0.033 | alisertib -0.046 | [2] -0.136 | gefitinib -0.016 | [3] 0.074 | lapatinib 0.004 | pictilisib -0.005

GTPBP3 isoform 2 (UniProt Q969Y2)
inactive: [1] -0.016 | filanesib -0.061 | zotarolimus 0.007 | idasanutlin 0.002 | alisertib -0.068 | [2] 0.004 | gefitinib 0.037 | [3] 0.094 | lapatinib -0.026 | pictilisib 0.046

HEXA (UniProt P06865)
inactive: [1] 0.028 | filanesib -0.066 | zotarolimus -0.015 | idasanutlin -0.012 | alisertib -0.095 | [2] 0.01 | gefitinib -0.005 | [3] 0.035 | lapatinib 0 | pictilisib 0.03

HACL1 (UniProt Q9UJ83)
inactive: [1] -0.003 | filanesib -0.085 | zotarolimus 0.075 | idasanutlin -0.038 | alisertib -0.016 | [2] -0.028 | gefitinib 0.031 | [3] 0.069 | lapatinib 0.005 | pictilisib -0.008

HEATR5B (UniProt Q9P2D3)
inactive: [1] -0.006 | filanesib -0.005 | zotarolimus -0.071 | idasanutlin 0 | alisertib 0.006 | [2] 0.039 | gefitinib -0.045 | [3] 0.033 | lapatinib 0.018 | pictilisib -0.065

HAX1 (UniProt O00165)
inactive: [1] -0.056 | filanesib 0.017 | zotarolimus 0.004 | idasanutlin 0.04 | alisertib -0.007 | [2] -0.311 | gefitinib -0.041 | [3] -0.014 | lapatinib -0.015 | pictilisib -0.145

GTF2E1 (UniProt P29083)
inactive: [1] 0.042 | filanesib 0.01 | zotarolimus 0.004 | idasanutlin -0.032 | alisertib -0.026 | [2] 0.06 | gefitinib 0.013 | [3] 0.012 | lapatinib -0.037 | pictilisib -0.002

HDAC3 isoform 2 (UniProt O15379)
inactive: [1] 0.017 | filanesib 0.048 | zotarolimus 0.077 | idasanutlin -0.025 | alisertib -0.093 | [2] 0.04 | gefitinib 0.089 | [3] 0.009 | lapatinib 0.061 | pictilisib 0.022

Reprinted at random: 2 entries already listed.
HEATR5B (UniProt Q9P2D3)
inactive: [1] -0.006 | filanesib -0.005 | zotarolimus -0.071 | idasanutlin 0 | alisertib 0.006 | [2] 0.039 | gefitinib -0.045 | [3] 0.033 | lapatinib 0.018 | pictilisib -0.065

GTF2E1 (UniProt P29083)
inactive: [1] 0.042 | filanesib 0.01 | zotarolimus 0.004 | idasanutlin -0.032 | alisertib -0.026 | [2] 0.06 | gefitinib 0.013 | [3] 0.012 | lapatinib -0.037 | pictilisib -0.002

Next part.

GUK1 isoform 2 (UniProt Q16774)
inactive: [1] 0.215 | filanesib -0.005 | zotarolimus 0.022 | idasanutlin -0.04 | alisertib -0.048 | [2] 0.155 | gefitinib -0.05 | [3] -0.019 | lapatinib -0.001 | pictilisib 0.017

GTF3A (UniProt Q92664)
inactive: [1] 0.092 | filanesib -0.138 | zotarolimus 0.067 | idasanutlin -0.018 | alisertib 0.014 | [2] -0.225 | gefitinib -0.139 | [3] -0.006 | lapatinib 0.099 | pictilisib -0.042

GYPC (UniProt P04921)
inactive: [1] 0.058 | filanesib 0.036 | zotarolimus 0.209 | idasanutlin 0.169 | alisertib -0.056 | [2] 0.21 | gefitinib 0.069 | [3] 0.102 | lapatinib -0.01 | pictilisib -0.019

HBA1 (UniProt P69905)
inactive: [1] -0.037 | filanesib 0.02 | zotarolimus 0.068 | idasanutlin -0.044 | alisertib -0.093 | [2] -0.154 | gefitinib 0.032 | [3] 0.079 | lapatinib 0.036 | pictilisib -0.088

GTSE1 (UniProt Q9NYZ3)
inactive: [1] -0.201 | filanesib 0.303 | zotarolimus -0.085 | idasanutlin 0.111 | alisertib 0.105 | [2] 0.075 | gefitinib -0.007 | [3] -0.07 | lapatinib 0.091 | pictilisib -0.016

H2AFX (UniProt P16104)
inactive: [1] -0.06 | filanesib 0.393 | zotarolimus -0.3 | idasanutlin 0.484 | alisertib -0.007 | [2] -0.136 | gefitinib 0.049 | [3] -0.361 | lapatinib 0.054 | pictilisib -0.215

HEBP1 (UniProt Q9NRV9)
inactive: [1] -0.068 | filanesib -0.153 | zotarolimus 0.016 | idasanutlin -0.021 | alisertib -0.139 | [2] 0.046 | gefitinib 0.027 | [3] -0.008 | lapatinib 0.28 | pictilisib 0.333

HELZ (UniProt P42694)
inactive: [1] -0.096 | filanesib 0.157 | zotarolimus -0.108 | idasanutlin -0.038 | alisertib -0.118 | [2] 0.056 | gefitinib -0.006 | [3] -0.273 | lapatinib 0.165 | pictilisib 0.098

HADHA (UniProt P40939)
inactive: [1] 0.267 | filanesib 0.082 | zotarolimus 0.081 | idasanutlin -0.321 | alisertib -0.035 | [2] 0.155 | gefitinib 0.209 | [3] -0.088 | lapatinib 0.148 | pictilisib 0.425

HERC1 (UniProt Q15751)
inactive: [1] 0.002 | filanesib 0.017 | zotarolimus 0.017 | idasanutlin -0.028 | alisertib -0.015 | [2] 0.025 | gefitinib -0.007 | [3] -0.008 | lapatinib 0.073 | pictilisib -0.011

HDDC3 (UniProt Q8N4P3)
inactive: [1] -0.138 | filanesib -0.004 | zotarolimus -0.032 | idasanutlin 0.037 | alisertib -0.072 | [2] -0.021 | gefitinib -0.001 | [3] 0.054 | lapatinib -0.066 | pictilisib 0.026

HARS (UniProt P12081)
inactive: [1] -0.058 | filanesib -0.026 | zotarolimus -0.012 | idasanutlin -0.011 | alisertib -0.034 | [2] -0.009 | gefitinib 0.008 | [3] 0.016 | lapatinib -0.018 | pictilisib 0.01

GTF2H2 (UniProt Q13888)
inactive: [1] 0.001 | filanesib 0.07 | zotarolimus 0.068 | idasanutlin -0.01 | alisertib -0.027 | [2] 0.003 | gefitinib -0.006 | [3] -0.012 | lapatinib 0.04 | pictilisib 0.004

HADH isoform 2 (UniProt Q16836)
inactive: [1] -0.027 | filanesib -0.077 | zotarolimus 0.017 | idasanutlin -0.034 | alisertib -0.064 | [2] -0.017 | gefitinib 0.078 | [3] 0.007 | lapatinib 0.023 | pictilisib -0.041

— the supplement of paper PMC10849652
